Assay results: the supplement of paper PMC4604168 (melanoma cell lines)
The other results are listed elsewhere or left out. Many values rest on one well or one pass, so single values are uncertain.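 Imaging used 1,536-well plates; nuclei positive for cleaved PARP by antibody were divided by total DNA-stained nuclei to yield the apoptosis fraction. Doses for screening kept most cells viable, and cell lines differ markedly in resting and induced cleaved-PARP levels.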

Tests used:
Experiment in all cases: cleaved PARP positive nuclei fraction relative to DMSO control; melanoma cells; higher = more apoptosis
Settings in all cases: library dose: low library concentration; 72 h
[1] = system: 501Mel
[2] = system: A101D
[3] = system: A2058
[4] = system: C32
[5] = system: CBRC008 (line from a melanoma biopsy)
[6] = system: CBRC014 (line from a melanoma biopsy)
[7] = system: CBRC016 (line from a melanoma biopsy)
[8] = system: CBRC017 (line from a melanoma biopsy)

Row | SMILES | cleaved PARP positive nuclei fraction [1] | cleaved PARP positive nuclei fraction [2] | cleaved PARP positive nuclei fraction [3] | cleaved PARP positive nuclei fraction [4] | cleaved PARP positive nuclei fraction [5] | cleaved PARP positive nuclei fraction [6] | cleaved PARP positive nuclei fraction [7] | cleaved PARP positive nuclei fraction [8]
1 | C=CCNC1=C2C[C@@H](C)C[C@H](OC)[C@H](O)[C@@H](C)/C=C(\C)[C@H](OC(N)=O)[C@@H](OC)/C=C\C=C(/C)C(=O)NC(=CC1=O)C2=O [Tanespimycin] + c1cc(-c2cnn3cc(-c4ccc(OCCN5CCCCC5)cc4)cnc23)ccn1 [Dorsomorphin] (first compound 0.002 µM, partner dose 0.4 µM) | 32.9% | 19.6% | 51% | 50.2% | 53.2% | 109% | 31.5% | 80.1%
2 | Clc1ccc(Nc2nnc(Cc3ccncc3)c3ccccc23)cc1 [vatalanib] + COc1ccc(-c2ccc3c(N4CCOCC4)nc(N4C[C@@H](C)O[C@@H](C)C4)nc3n2)cc1CO [KU0063794] (first compound 2 µM, partner dose 0.02 µM) | 41.4% | 167% | 61.8% | 124% | 79.5% | 102% | 22.6% | 89.1%
3 | C=CCNC1=C2C[C@@H](C)C[C@H](OC)[C@H](O)[C@@H](C)/C=C(\C)[C@H](OC(N)=O)[C@@H](OC)/C=C\C=C(/C)C(=O)NC(=CC1=O)C2=O [Tanespimycin] + O=C1NC(=O)/C(=C/c2ccc(-c3ccc(F)cc3O)o2)S1 [AS252424] (first compound 0.002 µM, partner dose 1 µM) | 85.9% | 13.9% | 52.9% | 328% | 153% | 96.2% | 21.4% | 84.4%
4 | CC(=O)c1c(C)c2cnc(Nc3ccc(N4CCNCC4)cn3)nc2n(C2CCCC2)c1=O [palbociclib] + Cn1cc(/C=C2\C(=O)Nc3cccnc32)c2ccccc21 [GW441756] (first compound 0.04 µM, partner dose 0.4 µM) | 60% | 33.9% | 69.6% | 151% | 160% | 131% | 76.6% | 160%
5 | C=CCNC1=C2C[C@@H](C)C[C@H](OC)[C@H](O)[C@@H](C)/C=C(\C)[C@H](OC(N)=O)[C@@H](OC)/C=C\C=C(/C)C(=O)NC(=CC1=O)C2=O [Tanespimycin] + Cn1cc(/C=C2\C(=O)Nc3cccnc32)c2ccccc21 [GW441756] (first compound 0.002 µM, partner dose 0.4 µM) | 76.8% | 14% | 93.4% | 137% | 299% | 98% | 74.1% | 71.8%
6 | CC(=O)c1c(C)c2cnc(Nc3ccc(N4CCNCC4)cn3)nc2n(C2CCCC2)c1=O [palbociclib] + CCCCCCCCCCCC1=C(O)C(=O)C=C(O)C1=O [Embelin] (first compound 0.04 µM, partner dose 1.2 µM) | 232% | 43% | 24.9% | 145% | 63.7% | 127% | 44.6% | 140%
7 | OCc1c[nH]c2ccccc12 [Indole-3-carbinol] + COc1cc2ncnc(Nc3ccc(Oc4ccccc4)cc3)c2cc1OC [SrcI1] (first compound 0.8 µM, partner dose 2 µM) | 98.3% | 9.82% | 116% | 102% | 110% | 79.3% | 110% | 160%
8 | CC(=O)c1c(C)c2cnc(Nc3ccc(N4CCNCC4)cn3)nc2n(C2CCCC2)c1=O [palbociclib] + COc1ccc2c(c1)CCC1C2CCC2(C)C(NCCCCCCN3C(=O)C=CC3=O)CCC12 [U73122] (first compound 0.04 µM, partner dose 0.4 µM) | 165% | 21.2% | 103% | 53.3% | 38% | 62.4% | 115% | 180%
9 | Clc1ccc(Nc2nnc(Cc3ccncc3)c3ccccc23)cc1 [vatalanib] + COc1cc(N2CCC(N3CCN(C)CC3)CC2)ccc1Nc1ncc(Cl)c(Nc2ccccc2S(=O)(=O)C(C)C)n1 [NVP-TAE684] (first compound 2 µM, partner dose 0.08 µM) | 91.6% | 322% | 287% | 97% | 160% | 220% | 104% | 90.8%
10 | C=CCNC1=C2C[C@@H](C)C[C@H](OC)[C@H](O)[C@@H](C)/C=C(\C)[C@H](OC(N)=O)[C@@H](OC)/C=C\C=C(/C)C(=O)NC(=CC1=O)C2=O [Tanespimycin] + O=C(Nc1ccccc1)c1cc([N+](=O)[O-])ccc1Cl [GW9662] (first compound 0.002 µM, partner dose 2 µM) | 57.4% | 39.1% | 87.7% | 29.9% | 313% | 110% | 26.7% | 96.1%
11 | Clc1ccc(Nc2nnc(Cc3ccncc3)c3ccccc23)cc1 [vatalanib] + CCc1ccc(CCOc2ccc(CC3SC(=O)NC3=O)cc2)nc1 [pioglitazone] (first compound 2 µM, partner dose 2 µM) | 65.4% | 44% | 31.6% | 260% | 129% | 170% | 34.9% | 169%
12 | OCc1c[nH]c2ccccc12 [Indole-3-carbinol] + O=S(=O)(c1ccccc1)N(CC(F)(F)F)c1ccc(C(O)(C(F)(F)F)C(F)(F)F)cc1 [T0901317] (first compound 0.8 µM, partner dose 1.4 µM) | 77.4% | 40.3% | 59.4% | 42.5% | 164% | 100% | 76.3% | 91.8%
13 | OCc1c[nH]c2ccccc12 [Indole-3-carbinol] + N#Cc1c(O)c2c(-c3ccc(-c4ccccc4O)cc3)csc2[nH]c1=O [A769662] (first compound 0.8 µM, partner dose 2 µM) | 76.3% | 12.8% | 69.1% | 34.5% | 60.7% | 88.1% | 79% | 82.1%
14 | C=CCNC1=C2C[C@@H](C)C[C@H](OC)[C@H](O)[C@@H](C)/C=C(\C)[C@H](OC(N)=O)[C@@H](OC)/C=C\C=C(/C)C(=O)NC(=CC1=O)C2=O [Tanespimycin] + Oc1cc(-c2nc(-c3ccccc3)[nH]c2-c2ccncc2)ccc1Cl [L779450] (first compound 0.002 µM, partner dose 0.2 µM) | 94.4% | – | 115% | 275% | 292% | 115% | 33.9% | 173%
15 | C=CCNC1=C2C[C@@H](C)C[C@H](OC)[C@H](O)[C@@H](C)/C=C(\C)[C@H](OC(N)=O)[C@@H](OC)/C=C\C=C(/C)C(=O)NC(=CC1=O)C2=O [Tanespimycin] + COc1ccc(COc2ccc(Cc3cnc(N)nc3N)cc2OC)cc1 [GW2580] (first compound 0.002 µM, partner dose 1 µM) | 97.4% | 23.1% | 134% | 202% | 51.9% | 114% | 106% | 70.7%
16 | Clc1ccc(Nc2nnc(Cc3ccncc3)c3ccccc23)cc1 [vatalanib] + Oc1nc(-c2ccc(C(F)(F)F)cc2)nc2c1CSCC2 [XAV939] (first compound 2 µM, partner dose 2 µM) | 80.9% | 113% | 62.3% | 153% | 78.7% | 92.2% | 49.2% | 86.6%
17 | OCc1c[nH]c2ccccc12 [Indole-3-carbinol] + Oc1cc(-c2nc(-c3ccccc3)[nH]c2-c2ccncc2)ccc1Cl [L779450] (first compound 0.8 µM, partner dose 0.2 µM) | 77% | 39% | 22.4% | 41.8% | 45.2% | 105% | 177% | 88.9%
18 | OCc1c[nH]c2ccccc12 [Indole-3-carbinol] + O=c1cc(-c2cccc3c2Sc2ccccc2S3)oc(N2CCOCC2)c1 [KU55933] (first compound 0.8 µM, partner dose 1 µM) | 134% | 19.9% | 31.9% | 31% | 44.3% | 43.6% | 98.3% | 92.2%
19 | C=CCNC1=C2C[C@@H](C)C[C@H](OC)[C@H](O)[C@@H](C)/C=C(\C)[C@H](OC(N)=O)[C@@H](OC)/C=C\C=C(/C)C(=O)NC(=CC1=O)C2=O [Tanespimycin] + O=c1cc(-c2cccc3c2Sc2ccccc2S3)oc(N2CCOCC2)c1 [KU55933] (first compound 0.002 µM, partner dose 1 µM) | 57.7% | 14.7% | 62.7% | 126% | 248% | 130% | 77.8% | 177%
20 | CC(=O)c1c(C)c2cnc(Nc3ccc(N4CCNCC4)cn3)nc2n(C2CCCC2)c1=O [palbociclib] + O=C1NC(=O)/C(=C/c2ccc(-c3ccc(F)cc3O)o2)S1 [AS252424] (first compound 0.04 µM, partner dose 1 µM) | 98.1% | 39.7% | 231% | 136% | 94.6% | 126% | 39.9% | 127%
21 | Clc1ccc(Nc2nnc(Cc3ccncc3)c3ccccc23)cc1 [vatalanib] + Oc1cc(-c2nc(-c3ccccc3)[nH]c2-c2ccncc2)ccc1Cl [L779450] (first compound 2 µM, partner dose 0.2 µM) | 71.2% | 78.8% | 81% | 76.8% | 40.4% | 126% | 67% | 89.2%
22 | OCc1c[nH]c2ccccc12 [Indole-3-carbinol] + O=C(Nc1ccccc1)c1cc([N+](=O)[O-])ccc1Cl [GW9662] (first compound 0.8 µM, partner dose 2 µM) | 291% | 49.5% | 152% | 83.3% | 83.7% | 88.2% | 121% | 86%
23 | OCc1c[nH]c2ccccc12 [Indole-3-carbinol] + COc1cc(N2CCC(N3CCN(C)CC3)CC2)ccc1Nc1ncc(Cl)c(Nc2ccccc2S(=O)(=O)C(C)C)n1 [NVP-TAE684] (first compound 0.8 µM, partner dose 0.08 µM) | 172% | 34.6% | 127% | 93.6% | 56% | 97.8% | 117% | 110%
